The text below walks through data of PMC7403151.

The assay concerns the target T1, CD133 (human (endogenous in A549/A400)) (UniProt O43490).
T1 sequence: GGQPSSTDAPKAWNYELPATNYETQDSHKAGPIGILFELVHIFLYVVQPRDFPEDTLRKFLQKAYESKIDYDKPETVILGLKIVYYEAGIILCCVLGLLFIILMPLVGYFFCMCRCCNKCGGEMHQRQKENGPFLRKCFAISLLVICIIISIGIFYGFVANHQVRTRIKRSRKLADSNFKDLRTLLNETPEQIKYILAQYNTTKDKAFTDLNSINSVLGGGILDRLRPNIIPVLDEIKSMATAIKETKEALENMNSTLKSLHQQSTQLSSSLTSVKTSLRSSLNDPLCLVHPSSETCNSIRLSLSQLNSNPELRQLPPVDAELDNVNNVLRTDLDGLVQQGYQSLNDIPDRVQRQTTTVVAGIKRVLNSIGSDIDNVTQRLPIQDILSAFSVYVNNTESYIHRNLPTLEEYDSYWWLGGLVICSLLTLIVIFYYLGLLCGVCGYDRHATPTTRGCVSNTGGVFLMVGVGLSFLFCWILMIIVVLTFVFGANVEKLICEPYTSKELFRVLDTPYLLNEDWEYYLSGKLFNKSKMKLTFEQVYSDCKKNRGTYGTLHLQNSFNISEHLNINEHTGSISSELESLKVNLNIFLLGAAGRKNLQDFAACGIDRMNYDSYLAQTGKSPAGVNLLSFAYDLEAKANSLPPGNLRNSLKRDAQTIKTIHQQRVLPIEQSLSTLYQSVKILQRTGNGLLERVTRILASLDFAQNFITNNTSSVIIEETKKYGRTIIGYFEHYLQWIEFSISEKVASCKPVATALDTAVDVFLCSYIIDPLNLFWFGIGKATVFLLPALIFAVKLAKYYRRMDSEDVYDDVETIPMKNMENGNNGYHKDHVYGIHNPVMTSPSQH
Nature of the assay: co-IP; 1 mg total protein of A549/A400 cell lysate after treatment with GMI and chloroquine for 24 h; pre-cleared with Protein A/G agarose; 2 ug anti-CD133 or anti-LC3B antibody overnight at 4 C; Protein A/G agarose; Western blot. Background: Immunoblotting shows a protein as a band on a membrane.

These are yes or no findings as the source states them, for the method shown. Binding seen in cells or lysates may run through a third protein. Some entries that bind do so weakly or less than the wild type.

With p62 (from UniProt Q13501 1-440), the binding result is on record as “binds”.
